Assay [1] addresses hemagglutinin (HA) of influenza A virus A/PR8/1934 (seasonal H1N1) (influenza A virus A/PR8/1934 (H1N1sea)) (UniProt P03452). Kind of assay: IFA on virus-infected MDCK cells.
Assay [2] deals with hemagglutinin (HA) of influenza A virus A/Turkey/Wisconsin/1/1966 (H9N2) (influenza A virus A/Turkey/Wisconsin/1/1966 (H9N2)) (UniProt P03457). Kind of assay: IFA on virus-infected MDCK cells.

Protein sequences, listed by entry. Tags and fused reporters are not part of them. Lines headed by an entry give the natural chain unless they say otherwise; changes in a name come on top. Residues count along the entry.
UniProt P03452, residues 18-565: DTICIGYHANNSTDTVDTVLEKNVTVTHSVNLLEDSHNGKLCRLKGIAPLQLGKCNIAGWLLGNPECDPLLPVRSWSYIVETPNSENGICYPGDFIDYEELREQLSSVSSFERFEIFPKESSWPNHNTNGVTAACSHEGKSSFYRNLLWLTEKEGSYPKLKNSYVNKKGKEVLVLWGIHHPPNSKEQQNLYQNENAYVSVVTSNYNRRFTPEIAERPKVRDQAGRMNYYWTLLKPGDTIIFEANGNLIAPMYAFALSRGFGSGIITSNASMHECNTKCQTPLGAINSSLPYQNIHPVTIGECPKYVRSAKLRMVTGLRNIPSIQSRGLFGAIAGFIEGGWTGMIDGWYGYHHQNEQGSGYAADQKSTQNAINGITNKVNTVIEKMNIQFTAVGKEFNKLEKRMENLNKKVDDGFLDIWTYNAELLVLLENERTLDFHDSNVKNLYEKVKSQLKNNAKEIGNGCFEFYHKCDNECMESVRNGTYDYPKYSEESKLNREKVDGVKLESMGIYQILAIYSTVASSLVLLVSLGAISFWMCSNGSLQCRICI
UniProt P03457: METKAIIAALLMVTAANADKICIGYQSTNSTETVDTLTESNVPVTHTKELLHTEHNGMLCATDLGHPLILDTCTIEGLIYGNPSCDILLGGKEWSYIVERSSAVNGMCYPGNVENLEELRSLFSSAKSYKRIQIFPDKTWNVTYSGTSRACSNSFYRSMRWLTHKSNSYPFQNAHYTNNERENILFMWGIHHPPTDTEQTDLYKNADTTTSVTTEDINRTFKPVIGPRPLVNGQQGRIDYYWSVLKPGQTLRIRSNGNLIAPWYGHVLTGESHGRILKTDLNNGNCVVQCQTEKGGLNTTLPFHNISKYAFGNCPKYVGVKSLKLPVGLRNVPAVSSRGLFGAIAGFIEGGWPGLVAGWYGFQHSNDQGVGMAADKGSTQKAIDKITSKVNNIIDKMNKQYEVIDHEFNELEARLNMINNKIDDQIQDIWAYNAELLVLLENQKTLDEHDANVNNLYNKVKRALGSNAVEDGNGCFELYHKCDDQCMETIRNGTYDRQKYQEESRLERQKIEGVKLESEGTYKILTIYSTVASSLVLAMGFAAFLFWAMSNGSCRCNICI

No constants are given. Whether binding was seen depends on the method and setting. Some results given as binding are weak or reduced against the parent protein; the word gives no strength.

B1: human monoclonal antibody (HuMAb) 2H5 (antibody, V domains shown)
VH: QVQLVQSGAEVKKPGSSVKVSCKSSGGNFNNYAVSWVRQAPGQGLEWMGGISPIFGSTNHAQKFQGRVTISADIFTNTAYMELSSLRSDDTAIYYCARGRGYYFYHAMDVWGQGSTVTVSS
VL: QSVLTQPPSVSAAPGQKVTISCSGSSSNIGHNFVSWYQQLPATAPKLLIYDTDKRPSGIPDRFSGSKSGTSATLGITGLQTGDEADYYCGTWDSSLSSVIFGGGTKLTVL
Consider B1, for which the binding entry in assay [1] and in assay [2] was “binds” in each case.

The values are drawn from US20160264648A1 (OSAKA UNIVERSITY, published 2016).
